Measurements reported in US20260216158A1, “OCULAR IMPLANT CONTAINING A TYROSINE KINASE INHIBITOR” (OCULAR THERAPEUTIX, INC., priority 2023, published 2026).
At least one compound was matched to its structure with a doubt left.

Assays:
[1] = Stability of axitinib polymorphs in implants over 6 months at RT (purity, XRD); type: physicochemical
[2] = Photostability study of polymorph IV API and implants (ICH Q1B Option 2; purity, XRPD); type: physicochemical

| Compound | Purity of polymorph in implant ([1]; 1.5 months, RT storage) [%] | Purity of polymorph in implant ([1]; 3 months, RT storage) [%] | Purity of polymorph in implant ([1]; 4.5 months, RT storage) [%] | Purity of polymorph in implant ([1]; 6 months, RT storage) [%] | Purity of polymorph in implant ([1]; time point 0, RT storage) [%] | cis-isomer impurity ([2]; API sample) | dimer (RRT~1.1286) impurity ([2]; UV light, 200-watt hours/m^2) [%] | dimer (RRT~1.1286) impurity ([2]; control, no light exposure) [%] | dimer (RRT~1.1286) impurity ([2]; visible light, 1.2 million lux hours/m^2) [%] |
| --- | --- | --- | --- | --- | --- | --- | --- | --- | --- |
| CNC(=O)c1ccccc1Sc1ccc2c(/C=C/c3ccccn3)n[nH]c2c1 [SAB-I, axitinib] | 100.0 | 99.9 | 99.9 | 99.9 | 99.6 |  |  |  |  |
| CNC(=O)c1ccccc1Sc1ccc2c(/C=C/c3ccccn3)n[nH]c2c1 [Polymorph IV, axitinib] | 99.7 | 99.7 | 99.7 | 99.7 | 99.8 | no cis-isomer | 31.06 | 0.564 | 31.29 |
